The experiment has as its system L1210 leukemia ip in BDF1 mice, survival T/C. Description: NCI In Vivo Anticancer Drug Screen. Data for tumor model L1210 Leukemia (intraperitoneal) in B6D2F1 (BDF1) mice. The conditions noted are these: T/C endpoint: mean survival time, higher T/C = longer survival.
[1] abbreviates: dose: 50.0 mg/kg/injection, schedule: Q01DX009 (ip), vehicle: Klucel (hydroxypropylcellulose) (HPC).
Where [2] appears, read: dose: 400.0 mg/kg/injection, schedule: Q01DX001 (ip), vehicle: saline.
[3] abbreviates: dose: 200.0 mg/kg/injection, schedule: Q04DX002 (ip), vehicle: Klucel (hydroxypropylcellulose) (HPC).
The mark [4] stands for this setting: dose: 400.0 mg/kg/injection, schedule: Q04DX002 (ip), vehicle: Klucel (hydroxypropylcellulose) (HPC).
The mark [5] stands for this setting: dose: 300.0 mg/kg/injection, schedule: Q01DX001 (ip), vehicle: saline.
The mark [6] stands for this setting: dose: 25.0 mg/kg/injection, schedule: Q01DX009 (ip), vehicle: Klucel (hydroxypropylcellulose) (HPC).
Setting [7] is: dose: 100.0 mg/kg/injection, schedule: Q01DX009 (ip), vehicle: Klucel (hydroxypropylcellulose) (HPC).
The mark [8] stands for this setting: dose: 100.0 mg/kg/injection, schedule: Q04DX003 (ip), vehicle: saline.
Where [9] appears, read: dose: 200.0 mg/kg/injection, schedule: Q04DX003 (ip), vehicle: saline.
The mark [10] stands for this setting: dose: 400.0 mg/kg/injection, schedule: Q04DX003 (ip), vehicle: saline.

The list does not hold the whole screen: it is rich in T/C values a quarter to a half above the control, in often repeated tests (any T/C) and in doses without a T/C. Other doses and runs of a compound stand elsewhere. T/C gives the treated animals as a percentage of the vehicle group. Some entries give survivors of the animals treated and no T/C: the source holds a T/C of zero for them, seemingly a mark for toxic or unscored doses. Some survivor counts are full or nearly so, which does not show that the dose was tolerated: survival well below the control is almost never listed, so the zero probably covers shortened survival too. Counts of survivors are from the toxicity check (mostly the fifth day) where no day follows; animals may have died later. Schedules are NCI's codes, read here as Q, the interval in days (D) or hours (H), X, the number of doses. Some schedule codes hold Z or #, which are not explained here. For survival time, the PubChem record calls one and a half times the control and up active, and a quarter to a half above the control has no call in these data; cut-offs in other NCI protocols can differ.

With `N#CSc1ccc(Nc2ccc(SC#N)cc2)cc1`, the survivor count under setting [1] is recorded as 6 of 6.

Consider `c1cc[c]([Sn]([S]c2ncnc3c2nc[n]3[Sn]([c]2ccccc2)([c]2ccccc2)[c]2ccccc2)([c]2ccccc2)[c]2ccccc2)cc1.c1cc[c]([Sn]([S]c2ncnc3nc[nH]c23)([c]2ccccc2)[c]2ccccc2)cc1`, for which the survivor count (dose: 40.0 mg/kg/injection, schedule: Q01DX001 (ip), vehicle: other) was 0 of 6; the survivor count (dose: 80.0 mg/kg/injection, schedule: Q01DX001 (ip), vehicle: other) is 0 of 6; the survivor count (dose: 100.0 mg/kg/injection, schedule: Q01DX001 (ip), vehicle: other) was 0 of 6; the survivor count (dose: 200.0 mg/kg/injection, schedule: Q01DX001 (ip), vehicle: other) is on record as 1 of 6; the survivor count (dose: 400.0 mg/kg/injection, schedule: Q01DX001 (ip), vehicle: other) is 0 of 6.

For the compound `C[N+](C)(C)Cc1ccc([N+](=O)[O-])cc1`, the survivor count runs as follows: (dose: 50.0 mg/kg/injection, schedule: Q01DX001 (ip), vehicle: saline) 1 of 4; (dose: 100.0 mg/kg/injection, schedule: Q01DX001 (ip), vehicle: saline) 0 of 4; (dose: 200.0 mg/kg/injection, schedule: Q01DX001 (ip), vehicle: saline) 0 of 4; under setting [2], 0 of 4.

In the case of `NC(CSS(=O)(=O)O)=NCc1ccccc1`, the survivor count reads like this: (dose: 100.0 mg/kg/injection, schedule: Q04DX002 (ip), vehicle: Klucel (hydroxypropylcellulose) (HPC)) 0 of 3; under setting [3], 0 of 3; under setting [4], 0 of 3.

With `CN1C2CCC1CC(=O)C2`, under setting [5], the survivor count was 0 of 6.

In the case of `CSc1nc(SCc2ccc(Cl)cc2)ncc1C`, the survivor count is, setting by setting: (dose: 25.0 mg/kg/injection, schedule: Q01DX Z (ip), vehicle: methylcellulose (MC)) 6 of 6; (dose: 100.0 mg/kg/injection, schedule: Q01DX Z (ip), vehicle: methylcellulose (MC)) 6 of 6.

As to `CCCCOC(=O)c1[nH]cnc1N`, the survivor count under setting [2] is listed as 3 of 6.

`COc1ccc(Oc2cc(CC3c4cc(OC)c(OC)cc4CCN3C)c([N+](=O)[O-])cc2OC)cc1OC` (centres undefined): the survivor count was 0 of 6 (dose: 200.0 mg/kg/injection, schedule: Q01DX009 (ip), vehicle: saline) and 0 of 6 (dose: 400.0 mg/kg/injection, schedule: Q01DX009 (ip), vehicle: saline).

As to `Clc1ccc(Cl)c(/C=C/c2ccc(Cl)c(Cl)c2)c1`, the survivor count is, setting by setting: (dose: 12.5 mg/kg/injection, schedule: Q01DX009 (ip), vehicle: Klucel (hydroxypropylcellulose) (HPC)) 2 of 6; under setting [6], 0 of 6; under setting [1], 0 of 6; under setting [7], 0 of 6; (dose: 200.0 mg/kg/injection, schedule: Q04DX003 (ip), vehicle: Klucel (hydroxypropylcellulose) (HPC)) 6 of 6; (dose: 400.0 mg/kg/injection, schedule: Q04DX003 (ip), vehicle: Klucel (hydroxypropylcellulose) (HPC)) 0 of 6.

`C[N+](C)(C)CCOC(=O)c1cccc(CBr)c1CBr`: the survivor count by setting is: under setting [8], 3 of 6; under setting [9], 0 of 6; under setting [10], 0 of 6.

Take `NNC12CC3CC(CC(C3)C1)C2`: the survivor count reads like this: (dose: 25.0 mg/kg/injection, schedule: Q01DX009 (ip), vehicle: saline) 5 of 6; (dose: 50.0 mg/kg/injection, schedule: Q01DX009 (ip), vehicle: saline) 0 of 6; under setting [8], 1 of 6; under setting [9], 0 of 6; under setting [10], 0 of 6.

Turning to `CC1(C)CC2CCC1(Cl)CC2Cl` (centres undefined), the survivor count (dose: 200.0 mg/kg/injection, schedule: Q01DX009 (ip), vehicle: saline + alcohol) is reported as 0 of 3.

For `COC(=O)C(Cc1ccccc1)NC(=O)C(C)NC(=O)OCc1ccccc1` (centres undefined), under setting [3], the T/C is 130 % of control.

Take `CCOC(=O)C(Cc1ccc(N(CCCl)CCCl)cc1)NC=O` (centres undefined): the T/C is 138 % of control (dose: 20.0 mg/kg/injection, schedule: Q01DX Z (ip), vehicle: carboxymethylcellulose (CMC)); 125 % of control (dose: 39.0 mg/kg/injection, schedule: Q01DX001 (ip), vehicle: carboxymethylcellulose (CMC)); 127 % of control (dose: 40.0 mg/kg/injection, schedule: Q01DX001 (ip), vehicle: carboxymethylcellulose (CMC)); 131 % of control (dose: 58.0 mg/kg/injection, schedule: Q01DX001 (ip), vehicle: carboxymethylcellulose (CMC)); 125 % of control (dose: 62.0 mg/kg/injection, schedule: Q01DX001 (ip), vehicle: carboxymethylcellulose (CMC)); 125 % of control (dose: 80.0 mg/kg/injection, schedule: Q01DX Z (ip), vehicle: carboxymethylcellulose (CMC)). Besides, the T/C (dose: 88.0 mg/kg/injection, schedule: Q01DX001 (ip), vehicle: carboxymethylcellulose (CMC)) is 142 % of control; the T/C (dose: 94.0 mg/kg/injection, schedule: Q01DX001 (ip), vehicle: carboxymethylcellulose (CMC)) is 125 % of control; the T/C (dose: 100.0 mg/kg/injection, schedule: Q01DX001 (ip), vehicle: carboxymethylcellulose (CMC)) is 140 % of control; the T/C (dose: 140.0 mg/kg/injection, schedule: Q01DX001 (ip), vehicle: carboxymethylcellulose (CMC)) is 131 % of control. The survivor count is recorded as 6 of 6 (dose: 160.0 mg/kg/injection, schedule: Q01DX Z (ip), vehicle: carboxymethylcellulose (CMC)); 2 of 6 (dose: 320.0 mg/kg/injection, schedule: Q01DX Z (ip), vehicle: carboxymethylcellulose (CMC)); 0 of 4 (dose: 400.0 mg/kg/injection, schedule: Q01DX001 (ip), vehicle: carboxymethylcellulose (CMC)).

Regarding `CCCCCCCCC(=O)[O][Hg][c]1ccccc1`, the survivor count reads like this: (dose: 150.0 mg/kg/injection, schedule: Q01DX001 (ip), vehicle: other) 0 of 6; (dose: 300.0 mg/kg/injection, schedule: Q01DX001 (ip), vehicle: other) 1 of 6.

For `CCCCCCCCCCCCCCCCCC1=NCCN1`, the survivor count is 6 of 6 under setting [6]; 6 of 6 under setting [1]; 5 of 6 under setting [7]; 3 of 3 under setting [3]; 2 of 3 under setting [4].

`CCCCC[As](=O)(O)O`: the survivor count is on record as 0 of 4 (dose: 12.5 mg/kg/injection, schedule: Q01DX001 (ip), vehicle: carboxymethylcellulose (CMC)); 0 of 4 (dose: 25.0 mg/kg/injection, schedule: Q01DX001 (ip), vehicle: carboxymethylcellulose (CMC)); 0 of 4 (dose: 50.0 mg/kg/injection, schedule: Q01DX001 (ip), vehicle: carboxymethylcellulose (CMC)).

Take `O=[N+]([O-])c1ccc([As](=O)(O)c2ccc([N+](=O)[O-])cc2)cc1`: under setting [5], the survivor count was 3 of 6.

The record behind these values is PubChem BioAssay AID248 (DTP/NCI, 2004).
